# Reference: the supplement of paper PMC12067093, “Discovery and optimisation of a covalent ligand for TRIM25 and its application to targeted protein ubiquitination” (Chemical Science, 2025)
# The other results are listed elsewhere or left out.
# Target: INTS9_Q9NV88_637_GHIVLLQEAETLIQIEEDSTHIICDNDEMLR (UniProt Q9NV88)
# Experiment: probe-labelled cysteine peptide fold change vs DMSO (competition) (log2 fold change); higher = less target engagement (more negative = stronger competition)
# Conditions: THP-1, incubation time: 4 h
# 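Also: competitive chemoproteomic profiling in live THP-1 cells with an iodoacetamide desthiobiotin (IA-DTB) probe, comparing probe-labelled peptide intensities in compound-treated cells against DMSO-treated controls.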
structure (smiles),measurement,setting,value
CC1Cc2ccccc2N1C(=O)C1CCCN(C(=O)CCl)C1 (mixture of isomers) [TRIM25 ligand 11 (diastereomer mixture)],probe-labelled cysteine peptide fold change,10 µM,-0.111
same,probe-labelled cysteine peptide fold change,50 µM,-0.196
